Results deposited as PubChem BioAssay AID1259254 (NCATS, 2017).

- Assay: 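Gene knock-downs that lead to re-replication, shown by excess G2 DNA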 (primary screen)
- System: human HCT116 colorectal cancer cells
- Reagents: single siRNA against human genes
- Duration: 3 days
- Detection: 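Imaged Hoechst DNA stain sorts each cell into a cycle phase by DNA amount; per plate, G2 fraction set to 0% for non-targeting and 100% for GMNN siRNA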
- Reading the numbers: G2 robust z-score: higher = more G2 cells, more excess DNA replication
- Rule for the call: 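An siRNA counts as active if its G2 robust z-score lies at least 5 MADs above the screen median; here such calls match roughly 38% of GMNN control or more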
The whole screen tested about 59,000 reagents; this is a part drawn at random. In the full data, about 1,550 (2.6%) are marked active. 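G2 share is only a proxy for re-replication; each gene was hit by three separate siRNAs, and active genes were retested.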 Reagents against one gene are numbered here. Further read-outs or replicates are left out here. The record does not give: the amount of reagent.

{"Target gene": "GOLGB1", "reagent": 1, "G2 robust z-score": -0.736, "Outcome": "inactive"}
{"Target gene": "GOLGB1", "reagent": 2, "G2 robust z-score": -0.144, "Outcome": "inactive"}
{"Target gene": "GOLGB1", "reagent": 3, "G2 robust z-score": 0.117, "Outcome": "inactive"}
{"Target gene": "MARCHF10", "reagent": 1, "G2 robust z-score": 0.0872, "Outcome": "inactive"}
{"Target gene": "MARCHF10", "reagent": 2, "G2 robust z-score": 0.391, "Outcome": "inactive"}
{"Target gene": "MARCHF10", "reagent": 3, "G2 robust z-score": -0.0358, "Outcome": "inactive"}
{"Target gene": "APOBEC3F", "reagent": 1, "G2 robust z-score": 0.959, "Outcome": "inactive"}
{"Target gene": "APOBEC3F", "reagent": 2, "G2 robust z-score": -0.543, "Outcome": "inactive"}
{"Target gene": "APOBEC3F", "reagent": 3, "G2 robust z-score": 7.01, "Outcome": "active"}
{"Target gene": "CEP20", "reagent": 1, "G2 robust z-score": -0.193, "Outcome": "inactive"}
{"Target gene": "CEP20", "reagent": 2, "G2 robust z-score": 1.32, "Outcome": "inactive"}
{"Target gene": "CEP20", "reagent": 3, "G2 robust z-score": -0.286, "Outcome": "inactive"}

Sorted by “G2 robust z-score” (highest first): 2 of the entries above.
{"Target gene": "GOLGB1", "reagent": 3, "G2 robust z-score": 0.117, "Outcome": "inactive"}
{"Target gene": "GOLGB1", "reagent": 2, "G2 robust z-score": -0.144, "Outcome": "inactive"}

Continued:
{"Target gene": "FAM13C", "reagent": 1, "G2 robust z-score": 2.29, "Outcome": "inactive"}
{"Target gene": "FAM13C", "reagent": 2, "G2 robust z-score": 0.339, "Outcome": "inactive"}
{"Target gene": "FAM13C", "reagent": 3, "G2 robust z-score": 1.86, "Outcome": "inactive"}
{"Target gene": "TMED5", "reagent": 1, "G2 robust z-score": 0.0608, "Outcome": "inactive"}
{"Target gene": "TMED5", "reagent": 2, "G2 robust z-score": -0.795, "Outcome": "inactive"}
{"Target gene": "TMED5", "reagent": 3, "G2 robust z-score": -0.0564, "Outcome": "inactive"}
